# Library screen at single concentrations

The values are deposited in ChEMBL (CHEMBL3988442, “University of Dundee, Small-Polar-MMV Screening Library” (2021)).

T. brucei: 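Whole-parasite assay of Trypanosoma brucei over 72 hours; the read-out is not stated. Compounds at 30 µM. Direction is inferred from retests: higher values go with stronger inhibition. Values scatter widely below zero; nearly all retest evidence comes from the higher of the two concentrations used. Size under these conditions: about 64,000 compounds, about 940 of them at 50% or above in at least one test.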
Toxoplasma: 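Assay of Toxoplasma gondii numbers, read through their beta-galactosidase reporter with a colour substrate. Tested at 10 µM. The record gives no direction; the compounds picked for IC50 retests had high values, so higher reads as fewer parasites. About 67,000 compounds were tested under these conditions; 0.38% (about 260) showed 50% or more at least once.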

Each number is a percent effect as filed.
The controls that fix the scale are not given in the record; negative values are as filed.
This is an unselected part of the compounds tested.
A dash means the value is not listed here; it may have been measured.

| Compound | T. brucei | Toxoplasma |
|---|---|---|
| `Cc1ccc(-c2ccc(C3CNCCO3)nc2)cc1.Cl` (configuration not stated) | 88.62 | 29.33 |
| `NC(=O)C1CCCN(c2ccc(CNC(=O)c3cnsn3)cc2)C1` (configuration not stated) | 0.9705 | 12.8 |
| `CC(=O)N1CCCC1c1nccnc1Nc1cccc(C)n1` (configuration not stated) | -9.099 | 1.276 |
| `COCCN1CCCC2(CCN(Cc3nnc(C4CC4)o3)C2)C1=O` (configuration not stated) | -18.45 | 4.543 |
| `CCC(C)(C)NC(=O)c1ncn2c1CN(C)S(=O)(=O)c1ccccc1-2.O=C(O)C(F)(F)F` | -72.17 | -20.82 |
| `c1ccc(-c2cc(CNCCN3CCOCC3)c3nnnn3c2)cc1` | -21.36 | -13.07 |
| `CC(O)Cc1cn(CC2CCN(c3nccc4occc34)CC2)nn1` (configuration not stated) | -3.711 | -0.06242 |
| `COc1ccc(-n2cc(CNC(=O)c3ccccn3)nn2)cc1` | - | -9.433 |
| `Cc1cccc(-c2nc(CN3CCCCC3Cn3cncn3)no2)c1` (configuration not stated) | -10.43 | -7.904 |
| `COc1ccc(N2CCN(C(=O)CCc3n[nH]c(C)n3)CC2=O)cc1` | -86.59 | 17.1 |
| `Cn1cccc1C(=O)N1CCC2(CCCN2S(C)(=O)=O)CC1` | -3.777 | -0.308 |
| `Cc1ccccc1CN1CCC(NCC2CNc3ccnn3C2)CC1` (configuration not stated) | -27.78 | 0.9038 |
| `Cc1ncc2c(n1)CN(Cc1nc(C)c(C)o1)CC2` | -17.69 | 4.615 |
| `CCS(=O)(=O)NC(CCSC)C(=O)Nc1cc(F)ccc1C` (configuration not stated) | -15.62 | 1.7 |
| `CC(C)CN1CCc2[nH]cnc2C12CCN(C(=O)c1cccnc1)CC2` | -10.97 | -3.304 |
| `CC(=O)N1CCCC1(C)c1nc(C)no1` (configuration not stated) | 15.32 | 8.77 |
| `Cc1ocnc1C(=O)N1CCN(CCOc2ccccc2)CC1` | -0.6041 | -15.67 |
| `CNc1snc(C)c1C(=O)N1CCCC(n2ccnc2C(C)C)C1` (configuration not stated) | -12.43 | 6.933 |
| `[H][C@@]12COC[C@]1(c1nnc(C3CC3)o1)CN(C(=O)c1ocnc1C)C2` | -38.42 | 1.748 |
| `CCc1cnc2c(c1NCc1ccc(OC)cc1)c(=O)n(C)c(=O)n2C` | -12.69 | 4.258 |
| `Cc1nn(C)cc1C(=O)N1CCCC(n2nnc3cc(F)ccc32)C1` (configuration not stated) | -9.824 | 8.026 |
| `N#Cc1ncn(CCC(=O)Nc2ccccc2F)n1` | -60.51 | 12.18 |
| `CCn1cc(CNC(=O)CCc2nnc(-c3ccc(C)s3)o2)cn1` | -38.69 | -12.16 |
| `COCCC(=O)N1CCC2(CCN(Cc3ccc(C)cc3)CC2)C1.O=C(O)C(F)(F)F` | -16.33 | 23.07 |
| `COc1ccccc1OCCN1CCCCC1Cn1cncn1` (configuration not stated) | -18.71 | 4.995 |
| `Cn1nccc1NCc1cc2cc(F)ccc2o1` | -53.88 | 23.95 |
| `O=C(NCCCNC(=O)C1CCC1)NCCn1cccc1` | -4.601 | -2.537 |
| `CC(NCc1ccccc1O)c1ccc(-n2ccnc2)cc1` (configuration not stated) | 16.64 | -14.15 |
| `c1cnnc(N2CCCC(NCc3cn4ccccc4n3)C2)c1` (configuration not stated) | -8.049 | 1.335 |
| `CC[C@@H]1N(Cc2ccc(OC)cc2)CCC[C@]12CCC(=O)N2CCOC.O=C(O)C(F)(F)F` | -46.04 | 21.83 |
| `COc1c(C)cc(C(C(=O)O)N(C)Cc2ccn[nH]2)cc1C` (configuration not stated) | -40.66 | 0.3604 |
| `[H][C@@]12COC[C@@H](CC(=O)N3CCCC3)[C@]1([H])CN(Cc1ccncc1)C2` | -4.362 | 95.78 |
| `Cc1cc(C)c(CNC(=O)N(C)Cc2cccc(C#N)c2)c(=O)[nH]1` | 3.953 | -6.684 |
| `CC(O)CN1CCc2onc(-c3ccccc3F)c2C1` (configuration not stated) | -14.59 | -13.85 |
| `COC(=O)c1ccc(C(=O)N2CCc3c(ncn3C3CC3)C2)cc1` | -27.45 | 10.89 |
| `CC[C@@H]1N(CC2CCOCC2)CCC[C@]12CCC(=O)N2.O=C(O)C(F)(F)F` | -76.98 | -4.693 |
| `CCc1nccn1C1CCCN(C(=O)c2cnc3onc(C)c3c2)C1` (configuration not stated) | 6.813 | 3.358 |
| `CCOCC(O)CN1CCN(C(=O)c2cnc3n[nH]c(C)c3c2)CC1` (configuration not stated) | 41.86 | 1.193 |
| `O=C(CNC(=O)N1CCc2c([nH]c3ccc(Cl)cc23)C1)NCCCO` | -35.27 | -4.884 |
| `Cc1cc(C)c(CNC(=O)NCc2ccncc2)c(=O)[nH]1` | -9.433 | 10.24 |
| `Cc1ncc(C(=O)OCC2CCN(c3ccccc3)C2)s1` (configuration not stated) | -42.12 | -4.049 |
| `CCN(CC)S(=O)(=O)CCNc1ncnc2cc(F)c(F)cc12` | -68.75 | -6.41 |
| `NS(=O)(=O)c1cccnc1NCc1ccco1` | -25.22 | 22.29 |

The last 5 entries again:

Compound	T. brucei	Toxoplasma
O=C(CNC(=O)N1CCc2c([nH]c3ccc(Cl)cc23)C1)NCCCO	-35.27	-4.884
Cc1cc(C)c(CNC(=O)NCc2ccncc2)c(=O)[nH]1	-9.433	10.24
Cc1ncc(C(=O)OCC2CCN(c3ccccc3)C2)s1 (configuration not stated)	-42.12	-4.049
CCN(CC)S(=O)(=O)CCNc1ncnc2cc(F)c(F)cc12	-68.75	-6.41
NS(=O)(=O)c1cccnc1NCc1ccco1	-25.22	22.29